Assay: soluble on expression in E. coli; label from the status in PepcDB or PDB records

Sequence: MTKVHYSRAPENSTKSCKARGSDLRVHFKNTHEAAMALRGMPLRRAQAFLNHVKEHKEIVPFRRFLDLLKNAESNAEYKGLDVDHLVIEHINVQRAAKLRRRTYRAHGRINPYMSSPCHIEVILAEKEDVVSKPTDDAAPKVKKESKRKQRRQLARGEF
- soluble on expression in E. coli: soluble

Sequence: MTPAGFPPSSRQIAFFEMESRSGARVGVQWRDLGSLQLSSPRFKRLSCLSLLSSWYYRCPPPQPANFCVFTRDGVSLCWPGRSRTPDLRHSARLGLPKCRDYRCEPPCPAIRLLFMFAAPWGNAMATALAIQGSRACGLCVSVCVYTYSCPPAAFQVTLSHPKPC
- soluble on expression in E. coli: not soluble

Sequence: MTRSSLFEELAEIAKERIMIIDGAMGTMIQREYMEEEDFRGEILKDHDKPLKGNNDLLSITRPDIIYKIHKLYLEAGADFVETNTFSGTTIAQADYRCEHLVHEINYQSALVARRACDDVGAATGRRRYVCGAIGPTNRTLSISPSVEKPDFRNVTFQELVKAYGDQARSLIQGGVDVLLVETVFDSANAKAALFAIRTLFEDEGVPEMPVFLSGTIVDMSGRTLSGQTGEAFLVSTKQGKPMAVGLNCALGAKDMRQFVDNMSKWSDSFIICYPNAGLPNALGGYDETPEEMADVLREFARDGLVNIIGGCCGTTPDHINAMYKAVQGITPRVPPQDPHAGKMLLSGLEPSIVGPETNFVNIGERCNVAGSRRFCNLIKNENYDTAIDVARVQVDSGAQILDVNMDDGLLDGPYAMSKFLRLISSEPDVAKIPVCIDSSDFDVIIAGLESTQGKCVVNSISLKEGEEKFKERARIIKRYGAAVVVMAFDEQGQAAETDPKFEICERSYRILTEEVGFNPNDIIFDANILTIATGMEEHSNYGMYFIEAARMIRENLPGAHVSGGVSNISFSFRGMEAIREAMHSVFLFYAIKAGMDMGIVNAGALPVYEDIDKPLLQLLEDLLFNRDPEATEKLLVAAQEMKKDGKKADTKTDEWRSLTVEERLKFALVKGVDQFVVADTEEARQNTAKYPRPLNVIERPLMDGMAVVGELFGAGKMFLPQVIKSARVMKKAVAHLLPFMEIERQANIETMGLAEDESPYQGTVVIATVKGDVHDIGKNIVSVVLGCNNFKVVDLGVMTPCENIIKAAIEEKADFIGLSGLITPSLDEMVYVAKEMNRVGLNIPLLIGGATTSKTHTAVKISPRYPHPVVHCLDASKSVVVCSSLSDMSVRDAFLQDLNEDYEDVRQEHYASLKDRRFTDLNKTREKKFKIDWDKFTAVKPSFVGRREYQNFDLNELIPYIDWKPFFDVWQLRGKYPNRSYPKIFDDADVGAEAKKVFDDAQTWLKKLIDEKILVANAVVSFLPAASEGDDMHVYDPETGNKLDTFYGLRQQSGREHDQPHFCLSDFIKPLKNGVPDDYLGLFACTAGLGAEEYCKTLEKNHDDYASIMVKALADRLAEAYAEYLHKEVRTTLWGYSTNEDLTESDLLSIKYQGIRPACGYPSQPDHTEKRTLWKLLEAEKNGIGLTEHLAMLPAASVSGLYFANPQSEYFAVGKIDQDQVIDYAARKNVPKEEVERWLSPILGYDTD
- soluble on expression in E. coli: not soluble

Sequence: MTTSTSPSSTDAPRATAPESSSSSSSSSSSSSSTSSVGASGIPSSSELSSTIGYDPMTASAALSAHFGSYYDPTSSSQIASYFASSQGLGGPQYPILGDQSLCYNPSVTSTHHDWKHLEGDDDDDKDDDKKGISGDDDDMDKNSGGAVYPWMTRVHSTTGGSRGEKRQRTAYTRNQVLELEKEFHTHKYLTRKRRIEVAHSLMLTERQVKIWFQNRRMKHKKENKDKPMTPPMMPFGANLPFGPFRFPLFNQF
- soluble on expression in E. coli: not soluble

Sequence: MVDHLLPVDENFSSPKCPVGYLGDRLVGRRAYHMLPSPVSEDDSDASSPCSCSSPDSQALCSCYGGGLGTESQDSILDFLLSQATLGSGGGSGSSIGASSGPVAWGPWRRAAAPVKGEHFCLPEFPLGDPDDVPRPFQPTLEEIEEFLEENMEPGVKEVPEGNSKDLDACSQLSAGPHKSHLHPGSSGRERCSPPPGGASAGGAQGPGGGPTPDGPIPVLLQIQPVPVKQESGTGPASPGQAPENVKVAQLLVNIQGQTFALVPQVVPSSNLNLPSKFVRIAPVPIAAKPVGSGPLGPGPAGLLMGQKFPKNPAAELIKMHKCTFPGCSKMYTKSSHLKAHLRRHTGEKPFACTWPGCGWRFSRSDELSRHRRSHSGVKPYQCPVCEKKFARSDHLSKHIKVHRFPRSSRSVRSVN
- soluble on expression in E. coli: soluble

Sequence: MVGLDDAASKLGVERRRIYDIVNVLESVGVLTRRAKNQYTWKGFSAIPGALKELQEEGVKDTFHRFYVNENVKGSDDEDDDEESSQPHSSSQTDSSKPGSLPQSSDPSKIDNRREKSLGLLTQNFIKLFICSEAIRIISLDDAAKLLLGDAHNTSIMRTKVRRLYDIANVLSSMNLIEKTHTLDSRKPAFKWLGYNGEPTFTLSSDLLQLESRKRAFGTDITNVNVKRSKSSSSSQENATERRLKMKKHSTPESSYNKSFDVHESRHGSRGGYHFGPFAPGTGTYPTAGLEDNSRRAFDVENLDSDYRPSYQNQGAYILFTSI
- soluble on expression in E. coli: soluble

Sequence: MYQDDHIGSEHSSATTNISHLCGLRISERPQKTRKTGVICTIGPACSDVETLRKMINTGMNIARLNFSHGTHEAHAATIKTIREAAENAPFPVAIALDTKGPEIRTGMFANNMKEVQLENGKSVRVSTDPSMEFAATSSHIYADYRNLPKVVQPGSRIYIDDGLISLIVESCEETAVICTIENGGALGTRKGVNLPGTIVDLPAVTSKDIEDLLFGVEQGVDIIFASFIRNADGIHKIRQVLGEKGKHIYIIAKIESEDGVTNCDEIIEASDGVMVARGDLGIEIPAEKVFLAQKMLIAKCNLAGKPVICATQMLESMITKPRPTRAECSDVANAVLDGVDCVMLSGETAKGDYPVEALAIMHNICKEAESAFFHMKHFEELILHTKKPTGMTHTTAIAAVSATITCRAVAIILITTTGKTARLCSRYRPPVPIITVSRDERISRQLHLHRGIFPVYYPKGRIDEWDVDVEERVQYGVNLGKTRGFIHLGDPLIVITGWKQGAGFTNTMRIVVAT
- soluble on expression in E. coli: not soluble

Sequence: SAHNPNMTHLKINLPVTALPPLWVRCDSSDPEGTCWLGAELITTNNSITGIVLYVVSCKADKNYSVNLENLKNLHKKRHHLSTVTSKGFAQYELFKSSALDDTITASQTAIALDISWSPVDEILQIPPLSSTATLNIKVESGEPRGPLNHLYRELKFLLVLADGLRTGVTEWLEPLEAKSAVELVQEFLNDLNKLDGFGDSTKKDTEVETLKHDTAAVDRSVKRLFKVRSDLDFAEQLWCKMSSSVISYQDLVKCFTLIIQSLQRGDIQPWLHSGSNSLLSKLIHQSYHGTMDTVSLSGTIPVQMLLEIGLDKLKKDYISFFIGQELASLNHLEYFIAPSVDIQEQVYRVQKLHHILEILVSCMPFIKSQHELLFSLTQICIKYYKQNPLDEQHIFQLPVRPTAVKNLYQSEKPQKWRVEIYSGQKKIKTVWQLSDSSPIDHLNFHKPDFSELTLNGSLEERIFFTNMVTCSQVHFK
- soluble on expression in E. coli: not soluble

Sequence: SESEMETQSARAEEGFTQVTRKGGRRAKKRQAEQLSAAGEGGDAGRMDTEEARPAKRPVFPPLCGDGLLSGKEETRKIPVPANRYTPLKENWMKIFTPIVEHLGLQIRFNLKSRNVEIRTCKETKDVSALTKAADFVKAFILGFQVEDALALIRLDDLFLESFEITDVKPLKGDHLSRAIGRIAGKGGKTKFTIENVTRTRIVLADVKVHILGSFQNIKMARTAICNLILGNPPSKVYGNIRAVASRSADRF
- soluble on expression in E. coli: soluble

Sequence: SEVKDANSALLSNYETLKYISKTPCRHQSPEIVREFLTALKSHKLTKAEKLQLLNHRPVTAVEIQLMVEESEERLTEEQIEALLHTVTSILPAEPEAEQKKNTNSNVAMDEEDPA
- soluble on expression in E. coli: soluble

Sequence: TEFKAGSAKKGATLFKTRCLQCHTVEKGGPHKVGPNLHGIFGRHSGQAEGYSYTDANIKKNVLWDENNMSEYLTNPKKYIPGTKMAIGGLKKEKDRNDLITYLKKACE
- soluble on expression in E. coli: soluble

From the DeepSol protein solubility set
